PubChem BioAssay AID1259308, NCATS, 2017
Here is an unselected part of about 59,000 reagents tested. About 1,510 of all reagents (2.6%) were called active. 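Calls use total luciferase alone and ignore viability, so some active siRNAs may act by altering cell number.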 Entries without a mark were called inactive. The numbers tell different reagents against one gene apart.

- Assay: 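Knock-downs that increase output of a recombinant reporter protein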 (primary screen)
- Cells: human HEK293 embryonic kidney cells stably expressing firefly luciferase (HEK-CMV-Luc2-Hygro)
- Knock-down reagent: single siRNA against human genes, 0.8 pmol siRNA per well
- Timing: 72 h
- Read-out: 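Reporter luminescence and viable-cell signal on separate replicate plates, given as percent of non-targeting control and median/MAD z-scores, plus per-cell luciferase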
- Reading the numbers: total luciferase, z-score and total luciferase, % of control: higher = more reporter protein produced; luciferase per cell, z-score: higher = more reporter output per viable cell; viable cells, % of control: higher = more viable cells
- Rule for the call: 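An siRNA counts as active if its total luciferase robust z-score exceeds 3; genes with two or more such siRNAs out of three were retested with fresh siRNAs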
- Meaning of the calls: active = raised luciferase; inactive = no rise

target | reagent | total luciferase, z-score | total luciferase, % of control | luciferase per cell, z-score | viable cells, % of control
NENF (neudesin neurotrophic factor) | 1 | -1.22 | 57.7 | -0.456 | 72.7
NENF (neudesin neurotrophic factor) | 2 | -2.07 | 40.8 | -1.86 | 74.4
NENF (neudesin neurotrophic factor) | 3 | -0.464 | 72.7 | -0.58 | 94.6
SPMIP9 (sperm microtubule inner protein 9) | 1 | -0.244 | 77 | -0.905 | 109
SPMIP9 (sperm microtubule inner protein 9) | 2 | 0.285 | 87.5 | 0.315 | 90
SPMIP9 (sperm microtubule inner protein 9) | 3 | -1.6 | 50.1 | -1.09 | 74.6
HRC (histidine rich calcium binding protein) | 1 | -1.25 | 57 | -1.44 | 93.2
HRC (histidine rich calcium binding protein) | 2 | -1.16 | 58.8 | -1.01 | 85.7
HRC (histidine rich calcium binding protein) | 3 | -0.425 | 73.4 | -0.0791 | 83.8
HES3 (hes family bHLH transcription factor 3) | 1 | 0.0959 | 83.8 | 0.733 | 77.2
HES3 (hes family bHLH transcription factor 3) | 2 | -0.346 | 75 | -0.693 | 101
HES3 (hes family bHLH transcription factor 3) | 3 | 3.71 (active) | 156 | 1.88 | 106
MOXD1 (monooxygenase DBH like 1) | 1 | -0.791 | 66.2 | -0.809 | 91.5
MOXD1 (monooxygenase DBH like 1) | 2 | -0.217 | 77.6 | -0.449 | 97.6
MOXD1 (monooxygenase DBH like 1) | 3 | -0.703 | 67.9 | -1.23 | 105
H3C13 (H3 clustered histone 13) | 1 | -0.528 | 71.4 | -0.726 | 96.6
H3C13 (H3 clustered histone 13) | 2 | 1.69 | 115 | 2.39 | 68.8
H3C13 (H3 clustered histone 13) | 3 | -1.34 | 55.3 | -1.04 | 81.3
TK1 (thymidine kinase 1) | 1 | -0.509 | 71.8 | -0.284 | 86.4
TK1 (thymidine kinase 1) | 2 | 1.3 | 108 | 0.674 | 101
TK1 (thymidine kinase 1) | 3 | 1.42 | 110 | 0.287 | 114
RPSAP9 (ribosomal protein SA pseudogene 9) | 1 | -2.81 | 26.1 | -1.85 | 47.5
RPSAP9 (ribosomal protein SA pseudogene 9) | 2 | -3.02 | 21.9 | -3.53 | 62
RPSAP9 (ribosomal protein SA pseudogene 9) | 3 | -1.96 | 42.9 | -0.275 | 51.6
MGAT4C (MGAT4 family member C) | 1 | -0.117 | 79.6 | -0.474 | 101
MGAT4C (MGAT4 family member C) | 2 | -0.326 | 75.4 | -0.668 | 100
MGAT4C (MGAT4 family member C) | 3 | -0.205 | 77.8 | -0.675 | 104
OVOL1 (ovo like transcriptional repressor 1) | 1 | 0.286 | 87.6 | 0.364 | 88.9
OVOL1 (ovo like transcriptional repressor 1) | 2 | 0.0878 | 83.6 | -0.234 | 99.4
OVOL1 (ovo like transcriptional repressor 1) | 3 | -0.879 | 64.4 | -0.556 | 83.3
LRRC38 (leucine rich repeat containing 38) | 1 | 0.272 | 87.3 | 0.603 | 83.2
LRRC38 (leucine rich repeat containing 38) | 2 | -0.321 | 75.5 | -0.769 | 103
LRRC38 (leucine rich repeat containing 38) | 3 | -1.36 | 54.9 | -1.92 | 102
OR13C8 (olfactory receptor family 13 subfamily C member 8) | 1 | 2.45 | 131 | 2.86 | 68.8
OR13C8 (olfactory receptor family 13 subfamily C member 8) | 2 | -0.269 | 76.5 | -0.222 | 90.7
OR13C8 (olfactory receptor family 13 subfamily C member 8) | 3 | 0.587 | 93.6 | -0.663 | 124
EBF3 (EBF transcription factor 3) | 1 | 0.913 | 100 | 1.02 | 85.6
EBF3 (EBF transcription factor 3) | 2 | -0.783 | 66.3 | -0.0562 | 75.2
EBF3 (EBF transcription factor 3) | 3 | -0.412 | 73.7 | -0.324 | 89.7
OR5AR1 (olfactory receptor family 5 subfamily AR member 1) | 1 | 0.323 | 88.3 | -0.331 | 108
OR5AR1 (olfactory receptor family 5 subfamily AR member 1) | 2 | 1.75 | 117 | 1.13 | 96.9
OR5AR1 (olfactory receptor family 5 subfamily AR member 1) | 3 | -0.433 | 73.3 | 1.13 | 60.9
ADCY7 (adenylate cyclase 7) | 1 | 2.27 | 127 | 1.89 | 86.2
ADCY7 (adenylate cyclase 7) | 2 | -1.54 | 51.2 | -1.48 | 84.3
ADCY7 (adenylate cyclase 7) | 3 | -0.361 | 74.7 | -0.422 | 93.3
CHP2 (calcineurin like EF-hand protein 2) | 1 | -0.104 | 79.8 | -0.423 | 99.7
CHP2 (calcineurin like EF-hand protein 2) | 2 | -0.599 | 70 | -0.366 | 86.1
CHP2 (calcineurin like EF-hand protein 2) | 3 | -0.316 | 75.6 | -0.886 | 107
SHISA5 (shisa family member 5) | 1 | 1.33 | 108 | 0.603 | 103
SHISA5 (shisa family member 5) | 2 | 0.038 | 82.6 | -0.321 | 100
SHISA5 (shisa family member 5) | 3 | 1.86 | 119 | 1.9 | 80.5
LAMTOR3 (late endosomal/lysosomal adaptor, MAPK and MTOR activator 3) | 1 | 1.69 | 115 | 0.732 | 106
LAMTOR3 (late endosomal/lysosomal adaptor, MAPK and MTOR activator 3) | 2 | -0.258 | 76.8 | -1.05 | 113
LAMTOR3 (late endosomal/lysosomal adaptor, MAPK and MTOR activator 3) | 3 | 0.0106 | 82.1 | -0.397 | 102
INSRR (insulin receptor related receptor) | 1 | 1.97 | 121 | 3.11 | 59.7
INSRR (insulin receptor related receptor) | 2 | 0.137 | 84.6 | 0.00352 | 94.5
INSRR (insulin receptor related receptor) | 3 | 0.0485 | 82.9 | -0.996 | 120

Just “total luciferase, % of control”, for 8 of the entries above:
TK1 (thymidine kinase 1) #3 = 110
RPSAP9 (ribosomal protein SA pseudogene 9) #1 = 26.1
RPSAP9 (ribosomal protein SA pseudogene 9) #2 = 21.9
RPSAP9 (ribosomal protein SA pseudogene 9) #3 = 42.9
MGAT4C (MGAT4 family member C) #1 = 79.6
MGAT4C (MGAT4 family member C) #2 = 75.4
MGAT4C (MGAT4 family member C) #3 = 77.8
OVOL1 (ovo like transcriptional repressor 1) #1 = 87.6
